PubChem BioAssay AID652243, Drosophila RNAi Screening Center, 2013
Screen: 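Fly genes required for human androgen receptor driven transcription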 (primary screen). System: Drosophila S2R+ cells. Reagent: long dsRNA against Drosophila genes. Duration: 72 h (48 h, then 24 h hormone). Conditions: synthetic androgen R1881 at 10 nM for 24 h. Read-out: 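Firefly light from an androgen-responsive reporter and Renilla control light per well, raw and unnormalised, for each of two replicates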. Scale: firefly reporter light: higher = more light from androgen-responsive reporter; Renilla control light: higher = more constitutive control signal (cell number, transfection). Active means: 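Hit when the log firefly-to-Renilla ratio dropped or increased by a fixed fold versus the mean of GFP or LacZ controls across duplicate plates; lowering cut given as 1.5 and as 3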. Calls: active = hit: reporter lowered or raised; inactive = no hit.
In all, the deposit lists about 24,000 reagents; this is a random part of those that have a named target and a result. Of all reagents, 246 (1%) are marked active. 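Plates not normalised; calls are printed but the firefly/Renilla ratio behind them is not deposited; fold cut for lowering reported inconsistently.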 Raw values are not corrected between plates. Not given: the amount of reagent.

no.	gene knocked down	dsRNA	firefly reporter light, replicate 1	firefly reporter light, replicate 2	Renilla control light, replicate 1	Renilla control light, replicate 2	outcome
1	Trhn	DRSC08621	5.23e5	5.31e5	1.62e6	1.86e6	inactive
2	CG32855	DRSC13131	64218	89896	85184	1.61e5	inactive
3	Dd	DRSC20539	1.48e5	1.25e5	8.87e5	5.69e5	inactive
4	CG5731	DRSC02883	1.65e5	2.47e5	1.02e6	1.09e6	inactive
5	CG5731	DRSC25969	3.60e5	4.61e5	8.70e5	7.90e5	inactive
6	nord	DRSC04210	2.49e5	2.71e5	1.63e6	1.77e6	inactive
7	nord	DRSC04361	2.50e5	3.02e5	1.37e6	1.33e6	inactive
8	CG17681	DRSC02632	1.99e5	3.19e5	1.67e6	2.74e6	inactive
9	dnk	DRSC16933	1.76e5	1.70e5	2.83e6	2.78e6	inactive
10	dnk	DRSC29240	4.76e5	7.02e5	1.19e6	1.12e6	inactive

Next part (3 carried over from the part before).
no.	gene knocked down	dsRNA	firefly reporter light, replicate 1	firefly reporter light, replicate 2	Renilla control light, replicate 1	Renilla control light, replicate 2	outcome
8	CG17681	DRSC02632	1.99e5	3.19e5	1.67e6	2.74e6	inactive
9	dnk	DRSC16933	1.76e5	1.70e5	2.83e6	2.78e6	inactive
10	dnk	DRSC29240	4.76e5	7.02e5	1.19e6	1.12e6	inactive
11	Camp	DRSC07004	1.04e5	1.11e5	1.88e6	1.88e6	inactive
12	CG31937	DRSC00514	1.03e6	1.27e6	2.22e6	2.01e6	inactive
13	CG9030	DRSC20139	4.83e5	5.44e5	2.66e6	3.21e6	inactive
14	vari	DRSC03202	95302	1.16e5	1.06e6	1.18e6	inactive
15	vari	DRSC36852					inactive
16	crim	DRSC10573	1.49e6	1.34e6	1.18e6	1.40e6	inactive
17	CG13133	DRSC02230	1.54e5	1.17e5	1.27e6	1.38e6	inactive
18	prd1	DRSC15227	86936	91952	1.74e6	1.97e6	inactive
19	Strip	DRSC08194	5.03e5	1.01e6	1.14e6	1.70e6	inactive
20	Strip	DRSC29471	5.39e5	6.40e5	1.01e6	1.01e6	inactive
21	Naa30A	DRSC23214	6.21e5	6.96e5	1.09e6	1.21e6	inactive
22	Naa30A	DRSC30080	9.17e5	8.32e5	1.10e6	1.02e6	inactive
23	Wdr81	DRSC02985	1.04e6	1.26e6	2.02e6	2.19e6	inactive
24	Wdr81	DRSC27272	2.41e5	2.28e5	5.34e5	5.71e5	inactive
